Results deposited as PubChem BioAssay AID686938 (Drosophila RNAi Screening Center, 2013).
In all, the deposit lists about 23,000 reagents; below is a random part of those that have a named target and a result. Over the whole deposit, 75 (0.33%) were called active. 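Raw plate signals without normalisation; calls rest on plate z-scores that were not deposited; ratio present for only 364 wells.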 Names joined by + are all predicted targets of the reagent. No sequences are given here. Not stated in the record: the dose of the treatment.

Screen: 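Knock-downs reducing store-operated calcium influx in Drosophila cells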 (primary screen)
System: Drosophila S2R+ cells
Reagents: long dsRNA against Drosophila genes, about 0.25 µg dsRNA per well, roughly 10,000 cells
Time to read-out: 5 days of knock-down before the calcium assay
Treatment: thapsigargin (SERCA pump blocker) to empty calcium stores; entry signal taken 4 min after adding it
Measured: 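Per-well fluo-4 fluorescence in two replicates, unnormalised, measured in resting cells and 4 min after store depletion by the SERCA blocker thapsigargin; ratio of the two present in few wells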
Scale: calcium entry signal: higher = stronger calcium signal after store depletion; entry to resting ratio: higher = more calcium entry relative to resting level; resting calcium signal: higher = higher resting calcium signal
Active means: 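Hit if the duplicate-averaged plate z-score for entry over resting signal is under −3; wells with weak total dye signal (Fmax z < −2) or more than 5 off-targets removed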
Meaning of the calls: active = strongly reduced calcium entry; inactive = no strong reduction

Target gene | amplicon | calcium entry signal, replicate 1 (fluorescence units) | calcium entry signal, replicate 2 (fluorescence units) | entry to resting ratio | resting calcium signal, replicate 1 (fluorescence units) | resting calcium signal, replicate 2 (fluorescence units) | outcome
RSG7 | DRSC20274 | 3.04e7 | 3.15e7 | – | 1.64e7 | 1.46e7 | inactive
RSG7 | DRSC22852 | 2.43e7 | 3.67e7 | – | 1.22e7 | 1.64e7 | inactive
CG15432 | DRSC00447 | 2.46e7 | 2.35e7 | – | 1.30e7 | 1.13e7 | inactive
Ssb-c31a | DRSC03443 | 3.84e7 | 6.15e7 | – | 1.72e7 | 2.52e7 | inactive
Ufd1 | DRSC10607 | 3.91e7 | 2.88e7 | – | 2.59e7 | 1.35e7 | inactive
salto | DRSC06291 | 4.86e7 | 3.62e7 | – | 1.90e7 | 1.74e7 | inactive
CG31313 | DRSC13044 | 2.07e7 | 2.83e7 | – | 1.07e7 | 1.36e7 | inactive
Ppt1 | DRSC17806 | 3.54e7 | 4.10e7 | – | 1.60e7 | 1.95e7 | inactive
CG11504 | DRSC14318 | 3.60e7 | 4.17e7 | – | 1.55e7 | 1.79e7 | inactive
Datp | DRSC01102 | 4.16e7 | 4.12e7 | – | 2.04e7 | 1.93e7 | inactive
Arl6IP1 | DRSC14231 | 2.29e7 | 5.35e7 | – | 1.26e7 | 6.35e7 | inactive
usp | DRSC18847 | 6.03e7 | 6.56e7 | 2.1 | 2.86e7 | 2.71e7 | inactive
Mrgn1 | DRSC20223 | 3.81e7 | 4.11e7 | – | 1.78e7 | 2.03e7 | inactive
mAChR-A | DRSC04702 | 3.98e7 | 5.46e7 | – | 2.11e7 | 2.22e7 | inactive
CG10467 | DRSC09728 | 2.66e7 | 4.61e7 | – | 1.30e7 | 1.91e7 | inactive
Sdr | DRSC15517 | 4.03e7 | 4.63e7 | – | 1.64e7 | 2.01e7 | inactive
Cp7Fa | DRSC18032 | 3.31e7 | 4.71e7 | – | 1.71e7 | 2.10e7 | inactive
Cp7Fa | DRSC18033 | 3.78e7 | 4.62e7 | – | 1.87e7 | 2.09e7 | inactive
clu | DRSC07181 | 3.34e7 | 3.82e7 | – | 1.71e7 | 1.77e7 | inactive
CaMKI | DRSC17162 | 3.00e7 | 4.01e7 | – | 1.49e7 | 1.80e7 | inactive
CG7634 | DRSC11843 | 2.70e7 | 3.87e7 | – | 1.20e7 | 1.68e7 | inactive
Arts + Apl | DRSC10349 | 3.49e7 | 5.25e7 | – | 1.68e7 | 1.97e7 | inactive
CG7059 | DRSC16187 | 4.25e7 | 4.60e7 | – | 6.06e7 | 2.08e7 | inactive
Bka | DRSC02757 | 2.64e7 | 3.85e7 | – | 1.46e7 | 1.86e7 | inactive
CG32115 | DRSC22607 | 3.03e7 | 5.35e7 | – | 1.68e7 | 2.23e7 | inactive
Rad23 | DRSC17167 | 3.35e7 | 4.24e7 | – | 1.60e7 | 2.07e7 | inactive
CG7252 | DRSC10789 | 5.80e7 | 4.77e7 | – | 3.66e7 | 1.84e7 | inactive
CG7252 | DRSC21492 | 3.78e7 | 3.53e7 | – | 2.11e7 | 1.49e7 | inactive
RtGEF | DRSC03604 | 3.01e7 | 4.08e7 | – | 1.52e7 | 1.54e7 | inactive
RtGEF | DRSC22207 | 3.76e7 | 5.65e7 | – | 1.79e7 | 2.78e7 | inactive
CG8539 | DRSC10988 | 4.50e7 | 3.45e7 | – | 3.03e7 | 1.53e7 | inactive
CG8539 | DRSC21798 | 3.76e7 | 3.61e7 | – | 2.15e7 | 1.74e7 | inactive
CG3528 | DRSC00611 | 3.42e7 | 4.04e7 | – | 1.61e7 | 1.67e7 | inactive
Sbds | DRSC10992 | 3.91e7 | 2.97e7 | – | 2.61e7 | 1.23e7 | inactive
eIF3l | DRSC10530 | 3.55e7 | 4.02e7 | – | 2.05e7 | 2.01e7 | inactive
TTLL6B | DRSC15932 | 3.66e7 | 6.25e7 | – | 1.93e7 | 2.56e7 | inactive
CG32055 | DRSC10666 | 3.69e7 | 2.18e7 | – | 2.60e7 | 1.02e7 | inactive
CG32212 + hpRNA:CR33940 | DRSC09618 | 3.33e7 | 3.67e7 | – | 1.72e7 | 1.50e7 | inactive
Zip42C.2 | DRSC05004 | 3.79e7 | 4.63e7 | – | 2.00e7 | 2.21e7 | inactive
PolE1 | DRSC16112 | 3.34e7 | 3.39e7 | – | 1.46e7 | 1.41e7 | inactive
Or85b | DRSC16765 | 3.02e7 | 2.94e7 | – | 1.30e7 | 1.31e7 | inactive
CG8757 | DRSC11039 | 3.21e7 | 4.48e7 | – | 1.60e7 | 1.91e7 | inactive
Spn43Aa | DRSC06117 | 4.39e7 | – | – | 2.25e7 | – | inactive
CG33339 | DRSC22917 | 4.26e7 | 3.25e7 | – | 2.20e7 | 1.61e7 | inactive
CG13965 | DRSC02307 | 4.71e7 | 4.21e7 | – | 2.40e7 | 1.89e7 | inactive
CG4701 | DRSC01952 | 3.01e7 | 2.23e7 | – | 1.39e7 | 1.10e7 | inactive
Kat60 | DRSC12378 | 3.11e7 | 2.41e7 | – | 1.49e7 | 1.14e7 | inactive
FucTA | DRSC10733 | 3.73e7 | 5.76e7 | – | 1.93e7 | 2.24e7 | inactive
CG10307 | DRSC04057 | 2.83e7 | – | – | 1.49e7 | – | inactive
Mccc2 | DRSC04987 | 3.62e7 | 5.20e7 | – | 1.99e7 | 2.40e7 | inactive
Mhc | DRSC03367 | 2.24e7 | 1.71e7 | – | 1.23e7 | 9.18e6 | inactive
ND-PDSW | DRSC00715 | 4.83e7 | – | – | 2.27e7 | – | inactive
CG11263 | DRSC09832 | 2.61e7 | 3.84e7 | – | 1.36e7 | 1.65e7 | inactive
Acadvl | DRSC07022 | 3.12e7 | 2.62e7 | – | 1.54e7 | 1.37e7 | inactive
PolI | DRSC16267 | 5.30e7 | 3.41e7 | – | 2.60e7 | 1.70e7 | inactive
nab | DRSC08455 | 3.68e7 | 3.41e7 | – | 1.85e7 | 1.44e7 | inactive
nab | DRSC08456 | 4.27e7 | 3.76e7 | – | 2.00e7 | 1.78e7 | inactive
Muc68D | DRSC10569 | 4.07e7 | 2.76e7 | – | 2.77e7 | 1.25e7 | inactive
CG6701 | DRSC07007 | 3.62e7 | 3.09e7 | – | 1.40e7 | 1.42e7 | inactive
THG | DRSC01896 | 3.89e7 | 2.43e7 | – | 1.85e7 | 1.27e7 | inactive
l(2)gd1 | DRSC02773 | 4.68e7 | – | – | 2.12e7 | – | inactive
CG15083 | DRSC06514 | 4.39e7 | 3.84e7 | – | 1.75e7 | 2.00e7 | inactive
Smvt | DRSC15426 | 2.60e7 | 3.95e7 | 1.9 | 1.37e7 | 1.68e7 | inactive
Gpo3 | DRSC01978 | 4.35e7 | 3.36e7 | – | 1.93e7 | 1.34e7 | inactive
Ote | DRSC07498 | 3.86e7 | 3.22e7 | – | 1.64e7 | 1.68e7 | inactive
CG11583 | DRSC08202 | 2.95e7 | 2.72e7 | – | 2.49e7 | 1.40e7 | inactive
RfC3 | DRSC03411 | 3.23e7 | 3.74e7 | – | 1.82e7 | 1.85e7 | inactive
alphaKap4 | DRSC09823 | 1.56e7 | 2.46e7 | – | 7.67e6 | 1.11e7 | inactive
eIF4E4 | DRSC09701 | 3.11e7 | 4.33e7 | – | 1.33e7 | 1.62e7 | inactive
CG12182 | DRSC08142 | 4.45e7 | 3.58e7 | – | 1.96e7 | 1.67e7 | inactive
Apoltp | DRSC02508 | 4.62e7 | – | – | 2.24e7 | – | inactive
Vps51 | DRSC06519 | 4.18e7 | 3.85e7 | – | 1.81e7 | 1.91e7 | inactive
cutlet | DRSC00284 | 3.37e7 | 2.90e7 | – | 1.71e7 | 1.40e7 | inactive
CG34338 | DRSC17535 | 2.88e7 | 3.81e7 | – | 1.45e7 | 1.67e7 | inactive
HmgZ | DRSC03888 | 3.08e7 | 3.63e7 | – | 1.52e7 | 3.29e7 | inactive
HmgZ | DRSC04620 | 5.26e7 | 1.73e7 | – | 2.60e7 | 9.82e6 | inactive
